These results are taken from paper PMC13171625, “Breaking the ‘rule-of-five’ to access bridged bicyclic heteroaromatic bioisosteres” (Nature Synthesis, 2026).

This series in a line: Metabolic stability in human liver microsomes. (In general: Liver microsomes are a subcellular fraction often used to study metabolism.)

`CCCNCC(O)COc1ccccc1C(=O)CCc1ccccc1` (stereo not drawn) [Propafenone]: where the note is “60 min, human liver microsomes with NADPH”, the “Remaining (T60)” value is reported as 0.1%. Also, under “1 h incubation, human liver microsomes, no co-factor (no NADPH)”, the “Remaining (NCF60)” value is reported as 105.2%. For the same molecule, under “human, liver microsomes”, the amount remaining at 5 min, 1 μM stood at 82.1%; the share remaining at 0.25 h, 1 μM amounted to 53.2%; the fraction remaining at 0.5 h, 1 μM amounted to 19.5%; the amount remaining at 0.75 h, 1 μM turned out to be 2.5%.

In general, amount remaining refers to the share of the starting amount still present when the sample was taken.
